# Results published in PubChem BioAssay AID588499 (NMMLSC, 2011).
# In all, about 360,000 compounds went through this assay and about 610 (0.17%) were called active. This list was built around the results that the source calls inconclusive (neither active nor inactive); the mix of calls is not that of the screen. Cut-off read from the data, not from the text of the source: active = inhibition above about 30%; inconclusive = no clear call, values can overlap the other calls; inactive = below that.
# System: Botulinum neurotoxin type A light chain protease (Clostridium botulinum A str. ATCC 3502)
# Test: blockers of BoNT/A LC substrate cleavage – biochemical, flow cytometry, MLPCN library, primary screen (AID 588499); note: plate controls were buffer without enzyme for full effect and enzyme alone for no effect
# Settings: multiplex microsphere protease substrate cleavage, at 10 µM, active compounds read high
row,Structure (SMILES),inhibition
1,CCCCN1C(=O)N(c2nnc(C(C)(C)C)s2)C(O)C1c1ccc(C)cc1 (stereo unspecified),inconclusive: -54.7%
2,C/C(=N\O)c1cc(Cl)cc(Cl)c1O,inactive: 1.6%
3,CC(=O)Nc1ccc(C=NNC(=O)CCCC(=O)NN=Cc2ccc(NC(C)=O)cc2)cc1,inactive: -0.2%
4,Nc1cc(N2CCCCC2)c(Cl)cc1[N+](=O)[O-],inconclusive: 2.5%
5,CC(=O)NC12CC3CC(C)(C1)CC(NC(C)=O)(C3)C2,inconclusive: 2%
6,CC(C)CC(=O)Nc1ccc(F)c(Cl)c1,inconclusive: -1.3%
7,CCOc1ccc(-n2c(=O)c3ccccc3c3ccccc3c2=O)cc1,inconclusive: -31.2%
8,C1CCCC(N2CCNCC2)CC1,inconclusive: -1.2%
9,Cc1cc(/C=C2/SC(=S)N(c3ccc([N+](=O)[O-])cc3)C2=O)c(C)n1-c1cccnc1,active: 32.9%
10,O=C(Nc1ccccc1C(=O)N1CCOCC1)C1COc2ccccc2O1 (stereo unspecified),inconclusive: 3.3%
11,O=C(c1cccn2c(=O)c3cc(Cl)ccc3nc12)N1CCOCC1,inconclusive: 2%
12,O=C1OCc2cc(NC(=O)C3CCCCC3)ccc21,inconclusive: 0.5%
13,COCc1cc(=O)[nH]c(-c2csc(C)n2)n1,inconclusive: -3.5%
14,Cc1cc(C(=O)N/N=C/C=C/c2ccc(Br)cc2)n[nH]1,inactive: -0.3%
15,COc1ccc(C(=O)NCc2ccccc2OC)c(OC)c1,inconclusive: -3%
16,CON/C=C(\C=Nc1ccc(Cl)cc1)c1ncc(C(F)(F)F)cc1Cl,inactive: -0.4%
17,CCOC(=O)C1CCCN(C(=O)CN2C(=O)c3ccccc3C2=O)C1 (stereo unspecified),inconclusive: 1.3%
18,CCCCCc1c(C)nc(NCc2ccccc2)[nH]c1=O,inconclusive: 7.1%
19,O=C(Nc1cccnc1)c1c(F)c(F)c(F)c(F)c1F,inactive: 0.3%
20,CC(C)NC(=O)NNC(=O)c1cc(COc2cc(Cl)cc(Cl)c2)on1,inconclusive: -20.3%
21,CC(C)[C@H](NC(N)=O)C(=O)Nc1ccc2c(c1)CCC2,inactive: 0.7%
22,CCc1nnc(NC(=O)c2ccc(Br)o2)s1,inactive: -2.8%
23,O=C(NCC(=O)N1CCCCCCC1)c1cccc([N+](=O)[O-])c1,inactive: 0.3%

# Quoted from the listing.
# inhibition with `CCc1nnc(NC(=O)c2ccc(Br)o2)s1` reads inactive: -2.8%
# inhibition with `Nc1cc(N2CCCCC2)c(Cl)cc1[N+](=O)[O-]` reads inconclusive: 2.5%

# Continuation.

row,Structure (SMILES),inhibition
1,CC(=O)Nc1cccc(NC(=O)NC2CC(=O)N(c3ccc4c(c3)OCCO4)C2)c1 (stereo unspecified),inactive: -0.8%
2,Cn1nc(CC(=O)NCCN2C(=O)CSC2=O)c2ccccc2c1=O,inconclusive: -1.8%
3,Cc1ccc[n+](CC(=O)Nc2cccc(Cl)c2)c1,inconclusive: -3.1%
4,O=C(NCCc1ccccc1)c1ccc(-c2cccnc2)c2ccoc12,inactive: -0.1%
5,Cc1cc(C)nc(NC(=O)/C=C/c2ccc3c(c2)OCO3)c1,inactive: 0.7%
6,CC1C(=O)N(Cc2cn(Cc3ccco3)nn2)CCS(=O)(=O)N1Cc1ccc(-c2ccc(Cl)c(Cl)c2)cc1 (stereo unspecified),inactive: -0.3%
7,CC(C)(C)n1nnnc1C(c1cccnc1)N1CCN(C(=O)c2ccco2)CC1 (stereo unspecified),inconclusive: -2.6%
8,Cc1nc(SCC(=O)NNC(=O)c2ccc(F)cc2)c2ccccc2n1,inactive: -0.6%
9,CC1CCCCN1S(=O)(=O)c1ccc(NC(=O)c2ccco2)cc1 (stereo unspecified),inconclusive: 0.9%
10,Cc1ccc(C(=O)c2oc3ccccc3c2NC(=O)c2cc(-c3cc(C)ccc3O)n[nH]2)cc1,inactive: -0.5%
11,COCCNC(=O)c1ccc(-n2c(SCc3cc(F)ccc3F)nc3ccccc3c2=O)cc1,inactive: 0.1%
12,C=C(CN(C)C)C(=O)c1ccc(OC2OC(COC(C)=O)C(OC(C)=O)C(OC(C)=O)C2OC(C)=O)cc1 (stereo unspecified),inactive: 0.1%
13,O=C1CSC(c2ccncc2)N1Cc1ccc(F)cc1 (stereo unspecified),inconclusive: 19.1%
14,COc1ccc(S(=O)(=O)N2CCCCCC2)cc1C(=O)N(C)CCOc1ccccc1,inconclusive: 2.7%
15,CN(CC(=O)Nc1ccc(OC(F)(F)F)cc1)C(=O)c1ccccc1SCC(=O)N1CCCC1,inactive: 0.1%
16,Cc1[nH]c2ccccc2c1-c1csc(N)n1,inconclusive: 12.9%
17,CCN(CC(=O)Nc1c(F)cccc1F)C(=O)C1CCN(S(=O)(=O)c2ccc(C)cc2C)CC1,inconclusive: -260%
18,COc1ccc(N=C2SCC(c3ccccc3)=NN2C)cc1,inconclusive: 9.3%
19,O=C1CCC(C(=O)OCC(=O)N2N=C3/C(=C/c4ccccc4)CCCC3C2c2ccccc2)N1 (stereo unspecified),inconclusive: -0.5%
20,O=C(CCCSc1nc2ccccc2[nH]1)Nc1nnc(-c2ccccc2)o1,inconclusive: -0.8%
21,O=C(Nc1cccc(-c2cn3cccnc3n2)c1)c1ccc(Br)o1,inconclusive: 2.3%
22,COC(=O)CSc1nnc(-c2ccncc2)o1,inconclusive: 13.4%
23,O=C(c1ccc2ccccc2c1)N1CCN(c2ccccc2)CC1,inconclusive: 1.7%

row,Structure (SMILES),inhibition
1,N#C/C(=N\Nc1ccc([N+](=O)[O-])cc1)C(=N)N1CCOCC1,inconclusive: -29.5%
2,Cc1cccc(NC(=O)C2CC(=O)N(Cc3ccccc3)C2)n1 (stereo unspecified),inconclusive: -1.3%
3,CSCCn1c(C(C)(C)C)cc(C(=O)O)c1C,inconclusive: -20.4%
4,Cc1c(NC(=O)CSc2nccn2C)c(=O)n(-c2ccccc2)n1C,inconclusive: -1.6%
5,CCCOc1ccc(C(=O)NNC(=S)NC(=O)c2ccco2)cc1,inconclusive: 8.8%
6,COCCCNC(=O)c1cccn2c(=O)c3cc4ccccc4cc3nc12,inconclusive: 10.4%
7,CCC(=O)Nc1c(-c2ccccc2)c(=O)c2ccccc2n1C,inconclusive: 7.4%
8,CCOC(=O)c1ccccc1NC(=O)c1ccc(Cl)c(S(=O)(=O)N2CCOCC2)c1,inconclusive: 1.4%
9,COc1ccc(-c2ccc(C(=O)NCC3CC3)c3occc23)c(C)c1,inactive: 0.5%
10,Cc1ccc(-c2nn3c(C)nnc3s2)cc1NC(=O)c1ccc(-c2ccc(Cl)cc2Cl)o1,inconclusive: 0.7%
11,CCN(CC)c1ccc(/C=N/NC(=O)OC(C)(C)C)cc1,inconclusive: 24.3%
12,N#CCCCSc1nnc(CSc2nc3ccccc3s2)n1-c1ccccc1,inactive: 0.1%
13,Cc1oc(C(C)(C)C)cc1C(N)=O,inconclusive: -2.7%
14,CC(C)CN1C(=O)c2ccc(NC(=O)c3ccccc3F)cc2C1=O,inconclusive: 1.4%
15,Cn1c(=O)[nH]c(=O)c2c1nc(CN1CCN(c3cccc(Cl)c3)CC1)n2CCN1CCOCC1,inconclusive: 5.9%
16,Cn1c(N2CCC(C(N)=O)CC2)nc2c1c(=O)n(Cc1ccc(Cl)cc1)c(=O)n2C,inconclusive: -0.1%
17,CCN1C(=O)/C(=C/C=C2\N(CC)c3cc(S(=O)(=O)N(C)C)ccc3N2c2ccccc2)SC1=S,active: 88.9%
18,CN(CCOc1ccc(Cl)cc1)c1ccc(S(=O)(=O)N2CCCCC2)cn1,inconclusive: -4.3%
19,CCN(CC)c1ccc(/C=N/N2CCOCC2)c(O)c1,inactive: -1.3%
20,Cc1ccc(C(=O)CCC2CCCCC2=O)cc1 (stereo unspecified),inconclusive: 1.2%
21,COc1ccc(C(CCNCc2ccc(N(C)C)cc2)C(C)C)cc1 (stereo unspecified),inconclusive: -8.8%
22,COCCN(CCOC)c1nc(-c2ccc([N+](=O)[O-])cc2)nc2ccccc12,inconclusive: 10.4%
23,CC1CCCCN1C(=O)COC(=O)c1cc(Cl)c2c(c1)OCO2 (stereo unspecified),inconclusive: -0.8%

row,Structure (SMILES),inhibition
1,CC(NC(=O)NC12CC3CC(CC(C3)C1)C2)C1CCCO1 (stereo unspecified),inconclusive: 2.8%
2,c1csc(CCCN2CCCCC2)c1,inactive: -0.9%
3,Cc1cc2cc(CNC(=O)c3ccc(S(=O)(=O)N4CCOCC4)cc3)ccc2[nH]1,active: 71.1%
4,Cc1ncc(S(=O)(=O)c2ccccc2)c(-c2ccccc2)n1,inactive: -0.5%
5,Cc1ccccc1C(=O)NNc1ccc([N+](=O)[O-])cc1,inconclusive: 8.9%
6,Cc1ccccc1NC(=O)/C(C#N)=C\c1cccnc1,inconclusive: -5.1%
7,COc1ccc(CCN2C(=NC(=O)CC(C)C)SC3CS(=O)(=O)CC32)cc1OC (stereo unspecified),inconclusive: 2.6%
8,CNC(=O)c1c(NC(=O)c2ccc(S(=O)(=O)N3CCCc4ccccc43)cc2)sc2c1CCN(C)C2,inconclusive: 0.4%
9,Cc1ccc(S(=O)(=O)N(C)C)cc1NC(=O)COC(=O)c1ccc2ccccc2n1,inactive: -1.8%
10,Cc1ccc(C(=O)N(CC(C)C)c2c(N)n(Cc3ccccc3)c(=O)[nH]c2=O)o1,inactive: -2.5%
11,CCCCC(=O)NC(=S)NNC(=O)c1ccc(OC)cc1,inactive: -1.4%
12,CCOC(=O)C(=O)N/N=C/c1cccc(Br)c1,inconclusive: 11%
13,C#CCNc1cc(C)nc2ncnn12,inconclusive: -4.3%
14,COc1ccc2occ(C(=O)c3cccs3)c2c1,inactive: -1.9%
15,CS/C(Nc1cc(Cl)ccc1Cl)=C(/C#N)C(=O)c1ccco1,inactive: 1.1%
16,O=C1c2cccc3cc([N+](=O)[O-])cc(c23)C(=O)N1/N=C/c1ccc(O)cc1O,inactive: -1.5%
17,CNS(=O)(=O)c1cccc(C(=O)NCC(c2cccs2)N(C)C)c1 (stereo unspecified),inactive: 2.5%
18,CN(C)c1ccc(P(=O)(OCc2ccccc2)C(O)c2ccc(Br)cc2)cc1 (stereo unspecified),inconclusive: -2%
19,COc1ccccc1CNC(=O)COC(=O)c1cccc(S(=O)(=O)N2CCOCC2)c1,inactive: 4.1%
20,O=C(c1ccc([N+](=O)[O-])o1)N1CCc2ccccc2C1,inactive: -1.6%
21,O=C(Cc1ccccc1)Nc1ccc2c(c1)C(=O)N(CC1CCCO1)C2=O (stereo unspecified),inactive: 0.3%
22,CCN(CC)S(=O)(=O)c1ccc2c(c1)c(=O)c(C(=O)N1CCN(c3ccccc3)CC1)cn2C,inconclusive: 0.9%

# Shown tab-delimited: entries from further up.
row	Structure (SMILES)	inhibition
8	CNC(=O)c1c(NC(=O)c2ccc(S(=O)(=O)N3CCCc4ccccc43)cc2)sc2c1CCN(C)C2	inconclusive: 0.4%
9	Cc1ccc(S(=O)(=O)N(C)C)cc1NC(=O)COC(=O)c1ccc2ccccc2n1	inactive: -1.8%
10	Cc1ccc(C(=O)N(CC(C)C)c2c(N)n(Cc3ccccc3)c(=O)[nH]c2=O)o1	inactive: -2.5%
11	CCCCC(=O)NC(=S)NNC(=O)c1ccc(OC)cc1	inactive: -1.4%
12	CCOC(=O)C(=O)N/N=C/c1cccc(Br)c1	inconclusive: 11%
